The target of the experiment is T1, Venus-GABAA receptor α1 subunit fusion (inhibitory synapse affinity tag), P62812.
T1 chain: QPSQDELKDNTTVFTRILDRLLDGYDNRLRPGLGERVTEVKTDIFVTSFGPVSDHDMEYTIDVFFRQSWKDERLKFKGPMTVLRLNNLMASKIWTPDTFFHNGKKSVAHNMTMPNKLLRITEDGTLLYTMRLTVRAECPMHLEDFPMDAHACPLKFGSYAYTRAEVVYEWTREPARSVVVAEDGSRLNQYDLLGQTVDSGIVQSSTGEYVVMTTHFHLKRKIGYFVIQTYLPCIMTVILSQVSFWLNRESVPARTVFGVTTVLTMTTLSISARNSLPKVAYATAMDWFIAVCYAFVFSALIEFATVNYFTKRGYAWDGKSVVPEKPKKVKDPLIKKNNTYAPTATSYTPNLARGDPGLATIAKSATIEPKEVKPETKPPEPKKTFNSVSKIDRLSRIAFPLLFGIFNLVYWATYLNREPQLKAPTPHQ
Kind of experiment: co-IP; crude synaptosome fraction of adult mouse cortex (Otx1-VGABAARα1 or Otx1-eGFP control) solubilised in 0.1% Triton X-100, gel filtration on Sephacryl S1000, high molecular weight fractions 6-10 pooled; immunopurified with anti-eGFP antibody on Dynabeads Protein G; immunoblot. The conditions noted are these: remark: other sources report otherwise.

No constants are given. Whether binding was seen depends on the method and setting. In cells and extracts the contact can be indirect. Some entries that bind do so weakly or less than the wild type. Where a sequence is shown, tags or fusion partners need not be part of it.

B1: Gephyrin, Q8BUV3 1-769 (protein)
chain: MATEGMILTNHDHQIRVGVLTVSDSCFRNLAEDRSGINLKDLVQDPSLLGGTISAYKIVPDEIEEIKETLIDWCDEKELNLILTTGGTGFAPRDVTPEATKEVIEREAPGMALAMLMGSLNVTPLGMLSRPVCGIRGKTLIINLPGSKKGSQECFQFILPALPHAIDLLRDAIVKVKEVHDELEDLPSPPPPLSPPPTTSPHKQTEDKGVQCEEEEEEKKDSGVASTEDSSSSHITAAALAAKIPDSIISRGVQVLPRDTASLSTTPSESPRAQATSRLSTASCPTPKQIRRPDESKGVASRVGSLKARLPSCSSTYSVSEVQSRCSSKENILRASHSAVDITKVARRHRMSPFPLTSMDKAFITVLEMTPVLGTEIINYRDGMGRVLAQDVYAKDNLPPFPASVKDGYAVRAADGPGDRFIIGESQAGEQPTQTVMPGQVMRVTTGAPIPCGADAVVQVEDTELIRESDDGTEELEVRILVQARPGQDIRPIGHDIKRGECVLAKGTHMGPSEIGLLATVGVTEVEVNKFPVVAVMSTGNELLNPEDDLLPGKIRDSNRSTLLATIQEHGYPTINLGIVGDNPDDLLNALNEGISRADVIITSGGVSMGEKDYLKQVLDIDLHAQIHFGRVFMKPGLPTTFATLDIDGVRKIIFALPGNPVSAVVTCNLFVVPALRKMQGILDPRPTIIKARLSCDVKLDPRPEYHRCILTWHHQEPLPWAQSTGNQMSSRLMSMRSANGLLMLPPKTEQYVELHKGEVVDVMVIGRL
In the case of B1, the binding result is on record as “binds”.
